Experimental data: doi:10.1101/2024.09.19.613927
No constants are given. Whether binding was seen depends on the method and setting. Binding seen in cells or lysates may run through a third protein. Some results given as binding are weak or reduced against the parent protein; the word gives no strength.

Amino acid sequences for entries named in this document (tags omitted).
UniProt P23475: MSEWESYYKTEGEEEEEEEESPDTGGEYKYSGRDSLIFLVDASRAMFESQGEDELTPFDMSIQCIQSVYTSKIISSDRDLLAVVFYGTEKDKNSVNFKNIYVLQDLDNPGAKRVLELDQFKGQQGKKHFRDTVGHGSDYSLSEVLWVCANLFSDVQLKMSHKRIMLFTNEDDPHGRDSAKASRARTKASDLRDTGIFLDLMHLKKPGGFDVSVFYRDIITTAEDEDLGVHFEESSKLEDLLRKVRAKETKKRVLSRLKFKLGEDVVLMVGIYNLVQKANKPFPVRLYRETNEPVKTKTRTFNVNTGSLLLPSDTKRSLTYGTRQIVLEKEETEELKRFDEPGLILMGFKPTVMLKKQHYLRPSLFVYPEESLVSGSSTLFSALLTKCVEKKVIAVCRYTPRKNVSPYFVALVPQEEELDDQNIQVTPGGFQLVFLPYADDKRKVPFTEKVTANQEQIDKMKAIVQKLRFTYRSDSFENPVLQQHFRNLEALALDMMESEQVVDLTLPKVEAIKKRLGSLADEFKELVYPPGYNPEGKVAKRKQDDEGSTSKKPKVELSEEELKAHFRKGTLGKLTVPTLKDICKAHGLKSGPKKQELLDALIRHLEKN
UniProt Q924T3: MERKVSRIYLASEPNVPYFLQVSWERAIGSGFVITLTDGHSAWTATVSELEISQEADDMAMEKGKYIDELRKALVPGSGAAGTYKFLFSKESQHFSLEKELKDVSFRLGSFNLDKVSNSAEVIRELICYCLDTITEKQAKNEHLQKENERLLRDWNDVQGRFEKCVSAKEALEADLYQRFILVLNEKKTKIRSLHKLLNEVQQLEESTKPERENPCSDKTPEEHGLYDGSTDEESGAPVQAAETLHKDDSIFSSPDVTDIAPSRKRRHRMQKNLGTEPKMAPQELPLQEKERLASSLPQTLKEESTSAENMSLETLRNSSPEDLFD
UniProt P42859: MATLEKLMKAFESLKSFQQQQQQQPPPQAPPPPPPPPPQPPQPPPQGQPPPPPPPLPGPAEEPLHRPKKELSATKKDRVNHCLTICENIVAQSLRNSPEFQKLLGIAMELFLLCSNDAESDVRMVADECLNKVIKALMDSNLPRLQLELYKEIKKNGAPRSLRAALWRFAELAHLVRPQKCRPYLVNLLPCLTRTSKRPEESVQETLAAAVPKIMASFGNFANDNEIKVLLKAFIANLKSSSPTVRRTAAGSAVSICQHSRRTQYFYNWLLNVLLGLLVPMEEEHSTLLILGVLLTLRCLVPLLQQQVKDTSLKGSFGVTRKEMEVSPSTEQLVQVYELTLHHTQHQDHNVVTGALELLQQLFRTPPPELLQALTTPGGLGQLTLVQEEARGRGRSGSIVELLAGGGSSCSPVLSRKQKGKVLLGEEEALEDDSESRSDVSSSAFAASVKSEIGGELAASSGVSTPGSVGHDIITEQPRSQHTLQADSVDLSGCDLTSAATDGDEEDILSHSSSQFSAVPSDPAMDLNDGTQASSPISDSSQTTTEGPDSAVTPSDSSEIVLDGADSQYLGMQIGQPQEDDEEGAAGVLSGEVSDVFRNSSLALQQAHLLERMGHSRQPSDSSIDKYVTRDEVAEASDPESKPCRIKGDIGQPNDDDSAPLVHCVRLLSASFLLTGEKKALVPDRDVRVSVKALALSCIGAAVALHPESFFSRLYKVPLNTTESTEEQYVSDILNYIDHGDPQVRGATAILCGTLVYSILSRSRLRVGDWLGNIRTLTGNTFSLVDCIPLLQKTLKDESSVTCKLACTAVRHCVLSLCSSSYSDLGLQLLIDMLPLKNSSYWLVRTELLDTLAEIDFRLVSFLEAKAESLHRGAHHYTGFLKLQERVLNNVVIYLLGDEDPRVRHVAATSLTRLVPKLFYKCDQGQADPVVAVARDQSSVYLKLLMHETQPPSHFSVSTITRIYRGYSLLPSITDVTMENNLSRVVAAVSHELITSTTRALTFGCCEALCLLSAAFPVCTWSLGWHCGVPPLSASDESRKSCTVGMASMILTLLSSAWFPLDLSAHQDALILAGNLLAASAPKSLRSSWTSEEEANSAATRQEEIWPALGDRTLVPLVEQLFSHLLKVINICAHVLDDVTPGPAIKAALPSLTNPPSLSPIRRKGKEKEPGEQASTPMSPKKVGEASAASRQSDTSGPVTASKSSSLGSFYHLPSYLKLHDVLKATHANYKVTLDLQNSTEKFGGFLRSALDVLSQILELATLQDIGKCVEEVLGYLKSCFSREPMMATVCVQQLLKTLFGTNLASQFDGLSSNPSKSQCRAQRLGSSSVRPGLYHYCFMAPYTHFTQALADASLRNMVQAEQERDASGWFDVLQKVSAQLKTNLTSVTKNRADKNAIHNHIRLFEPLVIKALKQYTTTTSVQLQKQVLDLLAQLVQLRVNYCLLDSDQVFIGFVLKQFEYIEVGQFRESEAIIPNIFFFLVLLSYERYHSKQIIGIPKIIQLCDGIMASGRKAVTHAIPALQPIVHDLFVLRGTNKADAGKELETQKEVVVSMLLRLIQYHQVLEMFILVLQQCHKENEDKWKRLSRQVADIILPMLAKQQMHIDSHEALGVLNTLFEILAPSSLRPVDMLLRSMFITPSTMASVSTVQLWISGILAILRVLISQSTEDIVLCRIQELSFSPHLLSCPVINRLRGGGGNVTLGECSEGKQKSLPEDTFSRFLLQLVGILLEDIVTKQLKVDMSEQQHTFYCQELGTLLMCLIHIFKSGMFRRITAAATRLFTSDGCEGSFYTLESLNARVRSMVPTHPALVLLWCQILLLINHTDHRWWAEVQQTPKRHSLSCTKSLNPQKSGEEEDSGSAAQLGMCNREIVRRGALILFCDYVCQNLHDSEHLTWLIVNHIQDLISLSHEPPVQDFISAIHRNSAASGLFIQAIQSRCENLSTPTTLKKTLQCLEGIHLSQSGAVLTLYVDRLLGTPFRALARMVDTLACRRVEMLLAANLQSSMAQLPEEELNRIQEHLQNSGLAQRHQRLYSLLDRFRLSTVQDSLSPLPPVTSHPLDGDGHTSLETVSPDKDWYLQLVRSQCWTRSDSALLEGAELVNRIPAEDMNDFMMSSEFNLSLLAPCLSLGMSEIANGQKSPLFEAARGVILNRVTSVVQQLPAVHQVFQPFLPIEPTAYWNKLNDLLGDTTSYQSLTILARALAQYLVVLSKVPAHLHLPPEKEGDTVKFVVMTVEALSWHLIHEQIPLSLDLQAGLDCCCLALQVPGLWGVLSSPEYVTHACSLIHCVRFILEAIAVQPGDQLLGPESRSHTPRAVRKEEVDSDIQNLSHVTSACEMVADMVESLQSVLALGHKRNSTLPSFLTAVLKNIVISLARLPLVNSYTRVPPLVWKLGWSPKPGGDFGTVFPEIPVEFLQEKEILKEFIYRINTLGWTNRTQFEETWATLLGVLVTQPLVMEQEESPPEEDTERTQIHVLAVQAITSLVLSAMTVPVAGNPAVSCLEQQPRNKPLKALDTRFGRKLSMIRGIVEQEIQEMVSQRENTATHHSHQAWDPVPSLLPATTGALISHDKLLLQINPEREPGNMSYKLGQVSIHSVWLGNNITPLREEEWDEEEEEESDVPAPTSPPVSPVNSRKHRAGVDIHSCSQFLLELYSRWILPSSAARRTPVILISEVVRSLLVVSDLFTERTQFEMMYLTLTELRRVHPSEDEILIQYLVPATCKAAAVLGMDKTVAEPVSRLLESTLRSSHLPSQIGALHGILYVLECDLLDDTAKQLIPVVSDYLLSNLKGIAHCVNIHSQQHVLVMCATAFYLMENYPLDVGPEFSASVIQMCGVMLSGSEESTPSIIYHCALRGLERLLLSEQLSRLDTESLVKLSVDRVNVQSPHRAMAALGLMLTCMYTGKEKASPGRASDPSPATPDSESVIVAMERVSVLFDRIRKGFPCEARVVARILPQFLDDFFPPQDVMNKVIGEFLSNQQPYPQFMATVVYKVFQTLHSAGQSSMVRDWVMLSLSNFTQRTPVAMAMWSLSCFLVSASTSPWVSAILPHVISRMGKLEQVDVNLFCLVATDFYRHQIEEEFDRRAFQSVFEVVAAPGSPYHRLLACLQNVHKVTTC
UniProt Q3TKT4: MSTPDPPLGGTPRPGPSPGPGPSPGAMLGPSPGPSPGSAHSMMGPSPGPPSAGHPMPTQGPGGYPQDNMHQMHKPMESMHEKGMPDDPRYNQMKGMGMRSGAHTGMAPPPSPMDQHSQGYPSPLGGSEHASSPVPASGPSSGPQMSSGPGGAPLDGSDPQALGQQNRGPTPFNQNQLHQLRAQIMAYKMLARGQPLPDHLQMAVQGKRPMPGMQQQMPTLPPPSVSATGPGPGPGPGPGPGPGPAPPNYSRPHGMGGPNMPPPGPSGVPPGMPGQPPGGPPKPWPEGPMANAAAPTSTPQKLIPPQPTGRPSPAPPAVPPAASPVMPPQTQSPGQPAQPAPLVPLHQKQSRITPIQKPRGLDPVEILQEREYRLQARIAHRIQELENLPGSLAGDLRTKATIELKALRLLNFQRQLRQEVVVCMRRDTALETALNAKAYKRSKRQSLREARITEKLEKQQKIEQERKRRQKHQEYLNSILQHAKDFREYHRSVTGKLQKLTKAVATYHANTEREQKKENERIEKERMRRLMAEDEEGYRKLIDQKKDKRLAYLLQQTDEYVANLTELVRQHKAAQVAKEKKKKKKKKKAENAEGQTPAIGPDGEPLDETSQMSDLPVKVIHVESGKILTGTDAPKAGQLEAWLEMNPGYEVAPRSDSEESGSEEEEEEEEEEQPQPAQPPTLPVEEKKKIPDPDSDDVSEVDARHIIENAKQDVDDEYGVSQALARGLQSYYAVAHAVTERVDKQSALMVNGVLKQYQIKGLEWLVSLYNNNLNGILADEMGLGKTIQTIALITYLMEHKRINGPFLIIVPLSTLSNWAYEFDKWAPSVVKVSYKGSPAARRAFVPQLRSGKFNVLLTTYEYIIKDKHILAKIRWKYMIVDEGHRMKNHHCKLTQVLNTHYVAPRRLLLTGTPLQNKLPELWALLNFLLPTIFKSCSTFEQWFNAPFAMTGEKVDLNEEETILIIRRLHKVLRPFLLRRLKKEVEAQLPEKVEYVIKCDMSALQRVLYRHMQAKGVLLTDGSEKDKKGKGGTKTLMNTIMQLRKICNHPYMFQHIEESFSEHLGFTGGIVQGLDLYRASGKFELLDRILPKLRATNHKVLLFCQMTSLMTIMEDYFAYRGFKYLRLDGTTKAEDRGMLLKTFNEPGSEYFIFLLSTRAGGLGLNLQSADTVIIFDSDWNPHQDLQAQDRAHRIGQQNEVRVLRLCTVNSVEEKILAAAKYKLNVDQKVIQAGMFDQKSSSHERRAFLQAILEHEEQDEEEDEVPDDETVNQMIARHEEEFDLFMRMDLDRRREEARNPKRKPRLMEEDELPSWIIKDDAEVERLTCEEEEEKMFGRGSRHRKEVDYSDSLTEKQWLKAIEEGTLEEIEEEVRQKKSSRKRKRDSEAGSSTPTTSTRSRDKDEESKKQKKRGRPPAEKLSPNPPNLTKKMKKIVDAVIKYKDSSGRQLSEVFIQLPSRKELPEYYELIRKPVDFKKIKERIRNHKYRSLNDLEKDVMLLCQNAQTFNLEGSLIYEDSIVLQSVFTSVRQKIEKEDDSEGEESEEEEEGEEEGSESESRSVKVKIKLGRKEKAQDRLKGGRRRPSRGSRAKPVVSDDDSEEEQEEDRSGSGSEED
UniProt Q13426: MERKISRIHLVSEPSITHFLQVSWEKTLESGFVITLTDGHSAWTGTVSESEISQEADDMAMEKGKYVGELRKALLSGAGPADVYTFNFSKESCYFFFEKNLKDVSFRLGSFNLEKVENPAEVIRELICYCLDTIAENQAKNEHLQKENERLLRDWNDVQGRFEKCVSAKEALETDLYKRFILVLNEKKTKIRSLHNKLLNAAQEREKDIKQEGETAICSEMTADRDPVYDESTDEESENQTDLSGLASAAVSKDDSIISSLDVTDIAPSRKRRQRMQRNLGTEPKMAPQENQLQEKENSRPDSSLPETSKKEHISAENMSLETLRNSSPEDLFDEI
UniProt P28352: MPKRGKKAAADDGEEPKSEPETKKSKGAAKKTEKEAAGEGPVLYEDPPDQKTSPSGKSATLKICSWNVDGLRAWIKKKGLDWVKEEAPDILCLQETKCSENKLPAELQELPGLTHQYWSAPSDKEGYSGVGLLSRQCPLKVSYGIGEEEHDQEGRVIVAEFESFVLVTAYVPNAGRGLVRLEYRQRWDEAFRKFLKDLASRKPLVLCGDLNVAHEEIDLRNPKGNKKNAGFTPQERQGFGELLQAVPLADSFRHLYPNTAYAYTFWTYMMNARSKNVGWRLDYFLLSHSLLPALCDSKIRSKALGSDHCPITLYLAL

Assays:
[1] = biological target: Ku70, mouse (mouse (endogenous in mouse brain)) (UniProt P23475); test: co-IP
[2] = biological target: DNA-PKcs, mouse (mouse (endogenous in mouse brain)) (UniProt P97313); test: co-IP
[3] = biological target: XRCC4, mouse (mouse (endogenous in mouse brain)) (UniProt Q924T3); test: co-IP
[4] = biological target: huntingtin (HTT), mouse (mouse (endogenous in C57BL/6 brain)) (UniProt P42859); test: co-IP
[5] = biological target: huntingtin (HTT) (human (endogenous in SH-SY5Y)) (UniProt P42858); test: proximity ligation
[6] = biological target: Brahma-Related Gene 1 (BRG1) (human (endogenous in SH-SY5Y)) (UniProt P51532); test: proximity ligation
[7] = biological target: FLAG-tagged BRG1 (FLAG-BRG1) (human) (UniProt P51532); test: co-IP
[8] = biological target: BRG1, mouse (mouse (endogenous in mouse brain)) (UniProt Q3TKT4); test: co-IP

“BRG1, mouse (from UniProt Q3TKT4 1-1613)” was tested, and the binding [1] was “binds”, the binding [2] was “binds” and the binding [3] was “binds”. For the same molecule, the binding [4] was “binds”.

In the case of “Cockayne Syndrome protein B (CSB) (from UniProt Q03468 1-1493)”, the binding [5] is reported as “binds”.

In the case of “Cockayne Syndrome protein B (CSB), mouse (from UniProt F8VPZ5 1-1481)”, the binding [4] is reported as “binds”.

With “DNA-PKcs, mouse (from UniProt P97313 1-4128) (enzyme)” the binding [4] was “binds”.

With “DNA-dependent protein kinase catalytic subunit (DNA-PKcs) (from UniProt P78527 1-4128) (enzyme)” the binding [6] was “binds” and the binding [7] was “binds”.

In the case of “Ku70 (XRCC6) (from UniProt P12956 1-609)”, the binding [5] is reported as “binds”.

Ku70, mouse (from UniProt P23475 1-608) was tested, and the binding [4] was “binds”.

In the case of “Ku80 (XRCC5) (from UniProt P13010 1-732)”, the binding [5] is reported as “binds”.

For “PARP1 (from UniProt P09874 1-1014) (enzyme)”, the binding [5] was “binds” and the binding [6] was “binds”.

With “PNKP (polynucleotide kinase 3'-phosphatase) (from UniProt Q96T60 1-521) (enzyme)” the binding [5] was “binds” and the binding [7] was “no binding”.

In the case of “PNKP, mouse (from UniProt Q9JLV6 1-522) (enzyme)”, the binding [4] is reported as “binds”.

For XRCC4 (from UniProt Q13426 1-336), the binding [5] was “binds”.

With “XRCC4, mouse (from UniProt Q924T3 1-326)” the binding [4] was “binds”.

“apurinic-apyrimidinic endonuclease 1 (APE1), mouse (from UniProt P28352 1-317) (enzyme)” was tested, and the binding [1] was “no binding”, the binding [2] was “no binding” and the binding [3] was “no binding”.

“huntingtin (HTT), mouse (from UniProt P42859 1-3119)” was tested, and the binding [1] was “binds”, the binding [8] was “binds” and the binding [2] was “binds”. For the same molecule, the binding [3] was “binds”.

B1: DNA LIG IV, mouse (enzyme, UniProt Q8BTF7 1-911)
chain: MASSQTSQTVAAHVPFADLCSTLERIQKGKDRAEKIRHFKEFLDSWRKFHDALHKNRKDVTDSFYPAMRLILPQLERERMAYGIKETMLAKLYIELLNLPREGKDAQKLLNYRTPSGARTDAGDFAMIAYFVLKPRCLQKGSLTIQQVNELLDLVASNNSGKKKDLVKKSLLQLITQSSALEQKWLIRMIIKDLKLGISQQTIFSIFHNDAVELHNVTTDLEKVCRQLHDPSVGLSDISITLFSAFKPMLAAVADVERVEKDMKQQSFYIETKLDGERMQMHKDGALYRYFSRNGYNYTDQFGESPQEGSLTPFIHNAFGTDVQACILDGEMMAYNPTTQTFMQKGVKFDIKRMVEDSGLQTCYSVFDVLMVNKKKLGRETLRKRYEILSSTFTPIQGRIEIVQKTQAHTKKEVVDALNDAIDKREEGIMVKHPLSIYKPDKRGEGWLKIKPEYVSGLMDELDVLIVGGYWGKGSRGGMMSHFLCAVAETPPPGDRPSVFHTLCRVGSGYTMKELYDLGLKLAKYWKPFHKKSPPSSILCGTEKPEVYIEPQNSVIVQIKAAEIVPSDMYKTGSTLRFPRIEKIRDDKEWHECMTLGDLEQLRGKASGKLATKHLHVGDDDEPREKRRKPISKTKKAIRIIEHLKAPNLSNVNKVSNVFEDVEFCVMSGLDGYPKADLENRIAEFGGYIVQNPGPDTYCVIAGSENVRVKNIISSDKNDVVKPEWLLECFKTKTCVPWQPRFMIHMCPSTKQHFAREYDCYGDSYFVDTDLDQLKEVFLGIKPSEQQTPEEMAPVIADLECRYSWDHSPLSMFRHYTIYLDLYAVINDLSSRIEATRLGITALELRFHGAKVVSCLSEGVSHVIIGEDQRRVTDFKIFRRMLKKKFKILQESWVSDSVDKGELQEENQYLL
B1 was tested, and the binding [4] was “binds”.
